# Measured values published in patent publication US10001485B2, “Methods for sensitizing a quiescent cancer stem cell to a BCR-ABL inhibitor” (The Regents of the University of California, priority 2011, dated 2018).
# At least one structure is not confirmed: it was looked up by name or label, or the drawing left a doubt.
# How the values were obtained:
# [1] = test system: BC LSC (human BC CML CD34+CD38+ progenitors); assay: BC LSC engraftment in vivo (FACS) in mice transplanted with human BC CML CD34+ cells; parameters: species or system RAG2−/−γc−/− mice; conditions: 50 mg/kg, FIG. 3a
# Excerpt: Immunocompromised RAG2^−/−yc^−/− mice were bred and maintained in the University of California San Diego Moores Cancer Center vivarium. Neonatal mice were transplanted intrahepatically with 50,000-200,000 CD34^+ cells according to our previously published methods (see Jaiswal, S. et al. cited above and Jamieson, C. H., et al. cited above). Transplanted mice were screened for tumor formation or human engraftment in peripheral blood by FACS at 6-8 weeks post-transplant. Upon detection of tumors, peripheral blood engraftment, or at 8-12 weeks post-transplant engrafted mice were treated for 2 weeks with dasatinib (daily, 50 mg/kg/day in 50% PEG, 50% PBS by oral gavage), sabutoclax (3 days per week, 5 mg/kg/day in 10% EtOH, 10% Cremaphor EL (Sigma Aldrich) 80% PBS by IP injection), or drug vehicles. Twenty-four hours post-treatment (10-14 weeks post-transplant), mice were euthanized and single cell suspensions of hematopoietic tissues were analyzed for human engraftment by FACS as described previously (see Jaiswal, S. et al. and Jamieson, C. H., et al. cited above). […] Total bone marrow cells were then counted by using Guava ViaCount Reagent and analysis on a Guava PCA system (Millipore), and transplanted in equal numbers into secondary neonatal recipients by intrahepatic injection. […]
# marrow-engrafted BC LSC = assay: FACS cell cycle analysis (Ki-67/7-AAD) of bone marrow engrafted BC CML cells; assay type: in vivo, RAG2−/−γc−/− mice; conditions: FIG. 1(d)
# Excerpt: Single cell suspensions of bone marrow cells from mice treated with sabutoclax or vehicle were immunostained with Alexa405-conjugated anti-human CD45 (Invitrogen), Alexa647-anti-human CD38 (Ab Serotec) and biotin-anti-human CD34 (Invitrogen) plus Alexa488-strepavidin (Invitrogen) in 2% fetal bovine serum/PBS-followed by live cell staining using the LIVE/DEAD® Fixable Near-IR Dead Cell Stain Kit (Invitrogen). Surface stained cells were then fixed in 70% ethanol overnight. […] Stained samples were analyzed using a FACSAria and FlowJo.
smiles,measurement,setting,value
"Cc1nc(Nc2ncc(C(=O)Nc3c(C)cccc3Cl)s2)cc(N2CCN(CCO)CC2)n1 [Dasatinib, dasatinib]",CD45+ leukemic burden in all tissues compared to vehicle treated controls,[1],significantly reduced
same,cell cycle profile of marrow-engrafted LSC after treatment,marrow-engrafted BC LSC,significant shift towards quiescence
